This passage reports binding results from doi:10.1101/2025.10.16.681972 (bioRxiv, 2025).

Results are given in words; binding and its absence hold for the method and conditions named. In cells and extracts the contact can be indirect. Tags and fused reporters may be left off the sequences shown.

Assay [1] deals with EGFR N-terminally tagged with NanoLuc or HaloTag (nanoBRET constructs) (UniProt P00533). The experiment in a line: FRET or BRET.
In assay [2] the target is MERTK N-terminally tagged with NanoLuc or HaloTag (nanoBRET constructs) (UniProt Q12866). The experiment in a line: FRET or BRET.

B1: MERTK N-terminally tagged with NanoLuc or HaloTag (nanoBRET constructs) (receptor, UniProt Q12866 21-999)
chain: AITEAREEAKPYPLFPGPFPGSLQTDHTPLLSLPHASGYQPALMFSPTQPGRPHTGNVAIPQVTSVESKPLPPLAFKHTVGHIILSEHKGVKFNCSISVPNIYQDTTISWWKDGKELLGAHHAITQFYPDDEVTAIIASFSITSVQRSDNGSYICKMKINNEEIVSDPIYIEVQGLPHFTKQPESMNVTRNTAFNLTCQAVGPPEPVNIFWVQNSSRVNEQPEKSPSVLTVPGLTEMAVFSCEAHNDKGLTVSKGVQINIKAIPSPPTEVSIRNSTAHSILISWVPGFDGYSPFRNCSIQVKEADPLSNGSVMIFNTSALPHLYQIKQLQALANYSIGVSCMNEIGWSAVSPWILASTTEGAPSVAPLNVTVFLNESSDNVDIRWMKPPTKQQDGELVGYRISHVWQSAGISKELLEEVGQNGSRARISVQVHNATCTVRIAAVTRGGVGPFSDPVKIFIPAHGWVDYAPSSTPAPGNADPVLIIFGCFCGFILIGLILYISLAIRKRVQETKFGNAFTEEDSELVVNYIAKKSFCRRAIELTLHSLGVSEELQNKLEDVVIDRNLLILGKILGEGEFGSVMEGNLKQEDGTSLKVAVKTMKLDNSSQREIEEFLSEAACMKDFSHPNVIRLLGVCIEMSSQGIPKPMVILPFMKYGDLHTYLLYSRLETGPKHIPLQTLLKFMVDIALGMEYLSNRNFLHRDLAARNCMLRDDMTVCVADFGLSKKIYSGDYYRQGRIAKMPVKWIAIESLADRVYTSKSDVWAFGVTMWEIATRGMTPYPGVQNHEMYDYLLHGHRLKQPEDCLDELYEIMYSCWRTDPLDRPTFSVLRLQLEKLLESLPDVRNQADVIYVNTQLLESSEGLAQGSTLAPLDLNIDPDSIIASCTPRAAISVVTAEVHDSKPHEGRYILNGGSEEWEDLTSAPSAAVTAEKNSVLPGERLVRNGVSWSHSSMLPLGSSLPDELLFADDSSEGSEVLM
modifications: HaloTag AlexaFluor488 substrate (membrane impermeable) on the HaloTag copy
Regarding B1, the binding entry in assay [1] and in assay [2] was “no binding” throughout.
